Test results taken from the supplement of paper PMC10849652.
This is one part of the list.

Sequences of proteins named here, by UniProt entry; tags and fusion partners are left off. A change or cut given only in a name is not applied to a line headed by its entry.
UniProt Q9H6Y2: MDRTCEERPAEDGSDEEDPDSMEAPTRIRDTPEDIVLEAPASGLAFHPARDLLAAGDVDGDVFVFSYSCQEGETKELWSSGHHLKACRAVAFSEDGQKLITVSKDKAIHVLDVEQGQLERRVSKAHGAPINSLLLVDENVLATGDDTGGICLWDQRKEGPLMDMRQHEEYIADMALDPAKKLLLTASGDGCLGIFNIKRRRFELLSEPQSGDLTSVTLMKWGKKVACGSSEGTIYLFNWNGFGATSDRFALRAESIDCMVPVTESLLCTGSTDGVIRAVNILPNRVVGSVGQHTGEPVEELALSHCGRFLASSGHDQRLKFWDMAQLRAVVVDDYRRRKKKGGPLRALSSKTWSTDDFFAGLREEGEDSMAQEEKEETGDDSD
UniProt Q96EX3: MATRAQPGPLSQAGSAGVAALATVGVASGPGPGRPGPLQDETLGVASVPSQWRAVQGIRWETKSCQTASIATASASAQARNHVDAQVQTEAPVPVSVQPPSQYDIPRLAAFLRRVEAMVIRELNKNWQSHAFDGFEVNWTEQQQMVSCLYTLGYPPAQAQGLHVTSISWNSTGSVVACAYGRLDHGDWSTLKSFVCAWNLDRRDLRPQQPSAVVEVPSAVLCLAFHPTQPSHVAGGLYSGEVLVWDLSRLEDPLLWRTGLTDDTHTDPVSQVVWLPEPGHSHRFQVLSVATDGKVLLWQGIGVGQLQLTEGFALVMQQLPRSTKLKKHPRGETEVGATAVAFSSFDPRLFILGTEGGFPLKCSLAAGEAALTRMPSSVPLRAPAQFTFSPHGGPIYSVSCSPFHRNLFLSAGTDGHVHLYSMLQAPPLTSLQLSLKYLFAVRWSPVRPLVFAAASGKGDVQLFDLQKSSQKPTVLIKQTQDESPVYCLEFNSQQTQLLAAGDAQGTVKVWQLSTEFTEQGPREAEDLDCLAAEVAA
UniProt Q5THJ4: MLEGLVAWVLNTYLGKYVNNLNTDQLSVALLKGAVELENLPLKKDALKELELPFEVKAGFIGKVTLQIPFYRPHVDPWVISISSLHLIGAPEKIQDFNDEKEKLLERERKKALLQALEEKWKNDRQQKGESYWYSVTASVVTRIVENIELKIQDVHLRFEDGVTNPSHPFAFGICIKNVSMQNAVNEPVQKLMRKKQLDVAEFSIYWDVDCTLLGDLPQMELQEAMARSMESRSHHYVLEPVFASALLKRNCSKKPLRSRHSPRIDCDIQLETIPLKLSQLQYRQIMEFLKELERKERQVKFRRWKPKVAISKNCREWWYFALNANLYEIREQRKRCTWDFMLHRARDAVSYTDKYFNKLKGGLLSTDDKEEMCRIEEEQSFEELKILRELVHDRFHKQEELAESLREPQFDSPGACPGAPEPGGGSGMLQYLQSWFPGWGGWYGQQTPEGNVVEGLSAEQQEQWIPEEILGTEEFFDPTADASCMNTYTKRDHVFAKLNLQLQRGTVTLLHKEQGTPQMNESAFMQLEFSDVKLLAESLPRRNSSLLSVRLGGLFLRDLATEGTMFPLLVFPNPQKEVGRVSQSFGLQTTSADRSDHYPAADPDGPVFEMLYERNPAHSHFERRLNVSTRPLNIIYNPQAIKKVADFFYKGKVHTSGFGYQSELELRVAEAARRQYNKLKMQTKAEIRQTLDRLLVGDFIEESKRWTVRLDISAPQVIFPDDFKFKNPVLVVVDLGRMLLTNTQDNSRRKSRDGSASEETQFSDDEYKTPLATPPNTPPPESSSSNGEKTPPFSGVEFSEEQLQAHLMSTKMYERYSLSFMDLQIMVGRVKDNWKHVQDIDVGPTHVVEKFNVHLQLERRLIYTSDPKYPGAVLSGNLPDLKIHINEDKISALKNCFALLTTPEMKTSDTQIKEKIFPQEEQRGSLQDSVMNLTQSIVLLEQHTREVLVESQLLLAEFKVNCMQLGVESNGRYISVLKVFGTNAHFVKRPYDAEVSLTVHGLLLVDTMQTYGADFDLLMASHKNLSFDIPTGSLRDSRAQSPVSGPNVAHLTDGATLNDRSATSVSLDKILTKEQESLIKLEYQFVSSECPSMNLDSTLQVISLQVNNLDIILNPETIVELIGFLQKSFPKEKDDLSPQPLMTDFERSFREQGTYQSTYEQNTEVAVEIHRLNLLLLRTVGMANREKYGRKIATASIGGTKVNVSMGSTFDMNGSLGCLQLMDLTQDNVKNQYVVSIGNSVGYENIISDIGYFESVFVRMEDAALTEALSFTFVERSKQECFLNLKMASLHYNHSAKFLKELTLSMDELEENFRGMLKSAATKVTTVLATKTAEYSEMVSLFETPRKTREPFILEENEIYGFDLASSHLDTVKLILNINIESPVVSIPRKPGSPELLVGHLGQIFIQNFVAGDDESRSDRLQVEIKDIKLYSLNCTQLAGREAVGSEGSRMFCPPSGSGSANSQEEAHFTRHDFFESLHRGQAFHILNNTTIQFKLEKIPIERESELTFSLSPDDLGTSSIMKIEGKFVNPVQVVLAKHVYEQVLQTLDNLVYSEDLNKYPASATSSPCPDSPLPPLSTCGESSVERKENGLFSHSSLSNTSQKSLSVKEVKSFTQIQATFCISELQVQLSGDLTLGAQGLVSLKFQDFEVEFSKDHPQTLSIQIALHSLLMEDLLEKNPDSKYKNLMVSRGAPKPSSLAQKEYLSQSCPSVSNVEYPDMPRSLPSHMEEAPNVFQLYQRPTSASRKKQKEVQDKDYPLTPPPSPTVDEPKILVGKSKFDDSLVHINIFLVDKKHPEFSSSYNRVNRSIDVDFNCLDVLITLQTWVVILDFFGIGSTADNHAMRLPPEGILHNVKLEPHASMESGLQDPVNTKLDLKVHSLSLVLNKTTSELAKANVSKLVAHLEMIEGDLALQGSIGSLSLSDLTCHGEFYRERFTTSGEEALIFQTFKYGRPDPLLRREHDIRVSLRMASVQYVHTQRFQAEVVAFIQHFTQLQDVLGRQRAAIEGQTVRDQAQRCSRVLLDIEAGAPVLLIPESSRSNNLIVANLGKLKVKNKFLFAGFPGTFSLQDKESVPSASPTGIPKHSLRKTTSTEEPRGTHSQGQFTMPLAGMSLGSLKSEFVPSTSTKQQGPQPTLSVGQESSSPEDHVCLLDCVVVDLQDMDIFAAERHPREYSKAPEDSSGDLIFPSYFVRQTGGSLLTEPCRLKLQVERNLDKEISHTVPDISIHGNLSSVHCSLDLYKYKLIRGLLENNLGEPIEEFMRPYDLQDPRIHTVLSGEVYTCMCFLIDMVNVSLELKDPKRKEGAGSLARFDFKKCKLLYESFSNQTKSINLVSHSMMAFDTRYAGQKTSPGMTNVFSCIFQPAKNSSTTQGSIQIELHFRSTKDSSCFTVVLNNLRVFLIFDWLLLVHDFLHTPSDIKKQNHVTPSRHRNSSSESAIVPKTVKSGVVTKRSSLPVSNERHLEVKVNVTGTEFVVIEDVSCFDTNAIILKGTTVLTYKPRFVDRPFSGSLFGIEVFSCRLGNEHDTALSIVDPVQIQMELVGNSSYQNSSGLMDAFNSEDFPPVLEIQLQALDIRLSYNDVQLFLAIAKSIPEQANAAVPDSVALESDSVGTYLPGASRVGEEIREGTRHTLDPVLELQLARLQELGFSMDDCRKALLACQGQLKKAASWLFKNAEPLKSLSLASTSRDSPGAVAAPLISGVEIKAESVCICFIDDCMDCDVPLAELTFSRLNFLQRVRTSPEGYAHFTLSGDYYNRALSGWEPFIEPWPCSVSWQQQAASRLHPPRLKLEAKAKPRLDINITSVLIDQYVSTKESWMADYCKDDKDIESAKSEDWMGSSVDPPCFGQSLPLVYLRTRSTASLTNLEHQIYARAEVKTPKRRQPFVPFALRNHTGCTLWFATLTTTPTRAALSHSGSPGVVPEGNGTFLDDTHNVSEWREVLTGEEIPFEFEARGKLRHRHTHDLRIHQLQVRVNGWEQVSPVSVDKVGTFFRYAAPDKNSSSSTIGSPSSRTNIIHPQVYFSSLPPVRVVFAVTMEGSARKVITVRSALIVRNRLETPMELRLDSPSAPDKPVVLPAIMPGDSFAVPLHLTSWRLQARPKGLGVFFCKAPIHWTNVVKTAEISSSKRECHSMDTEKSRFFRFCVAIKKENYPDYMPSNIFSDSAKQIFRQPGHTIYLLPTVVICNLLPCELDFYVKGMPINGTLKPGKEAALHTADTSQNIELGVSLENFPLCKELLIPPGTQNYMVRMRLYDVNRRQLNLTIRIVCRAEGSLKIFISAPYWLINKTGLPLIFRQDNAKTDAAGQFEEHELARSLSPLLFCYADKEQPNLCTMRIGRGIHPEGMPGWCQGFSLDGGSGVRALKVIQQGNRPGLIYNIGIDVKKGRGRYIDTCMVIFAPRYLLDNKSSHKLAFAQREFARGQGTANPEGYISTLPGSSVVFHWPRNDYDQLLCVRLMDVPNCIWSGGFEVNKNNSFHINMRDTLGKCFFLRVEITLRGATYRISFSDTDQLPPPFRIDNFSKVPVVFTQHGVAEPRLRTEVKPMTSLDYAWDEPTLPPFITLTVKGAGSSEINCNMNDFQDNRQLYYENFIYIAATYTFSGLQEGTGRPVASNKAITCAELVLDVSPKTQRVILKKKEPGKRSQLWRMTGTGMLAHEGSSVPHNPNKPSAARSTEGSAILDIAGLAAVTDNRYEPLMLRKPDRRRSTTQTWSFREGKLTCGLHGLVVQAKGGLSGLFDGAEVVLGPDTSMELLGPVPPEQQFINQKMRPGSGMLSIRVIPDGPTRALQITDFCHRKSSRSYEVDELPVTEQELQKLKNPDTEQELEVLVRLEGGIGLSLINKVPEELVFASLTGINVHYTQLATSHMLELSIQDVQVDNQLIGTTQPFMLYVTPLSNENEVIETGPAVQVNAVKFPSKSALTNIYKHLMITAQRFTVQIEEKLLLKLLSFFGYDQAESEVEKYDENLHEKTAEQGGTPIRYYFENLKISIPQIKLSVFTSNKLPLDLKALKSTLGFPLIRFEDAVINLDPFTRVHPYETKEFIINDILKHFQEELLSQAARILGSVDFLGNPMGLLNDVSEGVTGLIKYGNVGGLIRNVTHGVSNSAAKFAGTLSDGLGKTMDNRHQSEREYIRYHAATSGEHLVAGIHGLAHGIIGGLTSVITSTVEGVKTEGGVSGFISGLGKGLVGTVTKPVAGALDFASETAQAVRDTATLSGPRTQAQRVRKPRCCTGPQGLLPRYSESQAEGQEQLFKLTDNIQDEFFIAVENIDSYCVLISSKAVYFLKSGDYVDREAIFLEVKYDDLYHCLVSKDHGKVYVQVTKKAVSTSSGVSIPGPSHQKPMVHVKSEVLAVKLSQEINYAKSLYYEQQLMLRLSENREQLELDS
UniProt Q8IV63: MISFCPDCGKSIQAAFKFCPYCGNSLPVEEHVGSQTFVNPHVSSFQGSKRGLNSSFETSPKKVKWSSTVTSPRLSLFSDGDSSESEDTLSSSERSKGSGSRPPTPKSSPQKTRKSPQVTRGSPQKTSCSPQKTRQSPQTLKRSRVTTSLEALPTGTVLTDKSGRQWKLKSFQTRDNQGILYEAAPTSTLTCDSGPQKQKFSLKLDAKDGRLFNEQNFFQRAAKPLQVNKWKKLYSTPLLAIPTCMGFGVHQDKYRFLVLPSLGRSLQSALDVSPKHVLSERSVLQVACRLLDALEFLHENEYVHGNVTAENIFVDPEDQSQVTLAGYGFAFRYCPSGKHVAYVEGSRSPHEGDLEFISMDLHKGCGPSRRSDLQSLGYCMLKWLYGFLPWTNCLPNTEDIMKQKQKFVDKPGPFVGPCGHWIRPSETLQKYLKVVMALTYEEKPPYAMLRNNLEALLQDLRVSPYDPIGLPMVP
UniProt Q96MX6, whole entry, looked up: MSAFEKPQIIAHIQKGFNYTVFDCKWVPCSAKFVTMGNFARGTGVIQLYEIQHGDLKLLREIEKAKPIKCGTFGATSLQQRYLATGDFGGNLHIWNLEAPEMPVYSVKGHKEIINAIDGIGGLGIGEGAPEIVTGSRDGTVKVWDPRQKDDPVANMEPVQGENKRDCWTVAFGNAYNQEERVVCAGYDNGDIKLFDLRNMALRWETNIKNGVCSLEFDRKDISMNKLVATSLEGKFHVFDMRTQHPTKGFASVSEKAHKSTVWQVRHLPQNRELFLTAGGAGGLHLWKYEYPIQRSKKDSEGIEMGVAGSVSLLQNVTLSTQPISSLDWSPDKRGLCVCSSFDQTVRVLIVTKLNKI
UniProt Q96FK6: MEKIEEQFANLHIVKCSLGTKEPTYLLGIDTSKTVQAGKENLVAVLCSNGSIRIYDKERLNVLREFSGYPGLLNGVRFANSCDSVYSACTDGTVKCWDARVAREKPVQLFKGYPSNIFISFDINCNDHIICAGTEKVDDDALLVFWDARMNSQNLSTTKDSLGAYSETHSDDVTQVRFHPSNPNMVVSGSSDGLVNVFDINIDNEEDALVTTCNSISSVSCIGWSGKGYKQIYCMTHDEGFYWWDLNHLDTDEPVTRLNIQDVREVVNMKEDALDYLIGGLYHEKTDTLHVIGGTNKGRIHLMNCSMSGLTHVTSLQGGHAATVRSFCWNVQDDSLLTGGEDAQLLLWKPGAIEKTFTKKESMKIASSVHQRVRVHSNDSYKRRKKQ

Experiments:
Assay in all cases: log2 fold change, soluble protein after heating vs DMSO (PISA); higher = thermal stabilisation; K562 cells, 10 uM, 30 min; active = over 0.2 and 3.5 SD of the protein, either way, in both replicates (recomputed)
[1] = compound: CS(=O)(=O)c1ccc(-c2cnc(N)c(C(=O)Nc3ccccc3)n2)cc1
Method in brief: (§1)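 K562 cells at 2×10^6 cells/mL were treated with 10 μM compound for 30 min. Aliquots were heated for 3 min across 48°C-58°C, pooled, and extracted in PBS with 0.5% NP-40 at 4°C; soluble protein was the supernatant after 21,000xg for 90 min. Soluble protein was quantified by TMTpro 16plex LC-MS/MS with channel sums equalised, and reported as log2 fold change in thermal stability against DMSO controls, with values from duplicates.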

crizotinib = compound: C[C@@H](Oc1cc(-c2cnn(C3CCNCC3)c2)cnc1N)c1c(Cl)ccc(F)c1Cl [crizotinib]
Method in brief: as §1

[2] = compound: C[C@@H]1COCCN1C2=NC(=NC(=C2)C3(CC3)S(=O)(=O)C)C4=C5C=CNC5=CC=C4
Method in brief: as §1

[3] = compound: C[C@H](C1=CC=C(C=C1)C(=O)NC2=C3C=CNC3=NC=C2)N
Method in brief: as §1

duvelisib = compound: C[C@H](Nc1ncnc2nc[nH]c12)c1cc2cccc(Cl)c2c(=O)n1-c1ccccc1 [duvelisib]
Method in brief: as §1

gandotinib = compound: Cc1cc(Nc2cc(CN3CCOCC3)c3nc(C)c(Cc4ccc(Cl)cc4F)n3n2)n[nH]1 [gandotinib]
Method in brief: as §1

tozasertib = compound: Cc1cc(Nc2cc(N3CCN(C)CC3)nc(Sc3ccc(NC(=O)C4CC4)cc3)n2)n[nH]1 [tozasertib]
Method in brief: as §1

[4] = compound: Cc1cc(SCc2sc(-c3ccc(C(F)(F)F)cc3)nc2C)ccc1OCC(=O)O
Method in brief: as §1

doramapimod = compound: Cc1ccc(-n2nc(C(C)(C)C)cc2NC(=O)Nc2ccc(OCCN3CCOCC3)c3ccccc23)cc1 [doramapimod]
Method in brief: as §1

ispinesib = compound: Cc1ccc(C(=O)N(CCCN)[C@@H](c2nc3cc(Cl)ccc3c(=O)n2Cc2ccccc2)C(C)C)cc1 [ispinesib]
Method in brief: as §1

Measured: log2 fold change

WDR55 (UniProt Q9H6Y2)
inactive: [1] -0.004 | crizotinib 0.105 | [2] -0.009 | [3] 0.063 | duvelisib 0.064 | gandotinib 0.014 | tozasertib 0.013 | [4] -0.03 | doramapimod -0.03 | ispinesib 0.061

VPS4A (UniProt Q9UN37)
inactive: [1] 0.048 | crizotinib -0.174 | [2] 0.079 | [3] -0.022 | duvelisib 0.023 | gandotinib -0.058 | tozasertib -0.022 | [4] 0.023 | doramapimod -0.023 | ispinesib -0.059

WDR34 (UniProt Q96EX3)
inactive: [1] 0.019 | crizotinib -0.062 | [2] -0.014 | [3] -0.037 | duvelisib 0.1 | gandotinib -0.044 | [4] 0.133 | doramapimod 0.037 | ispinesib -0.01

WDR20 isoform 7 (UniProt Q8TBZ3)
inactive: [1] 0.058 | crizotinib 0.063 | [2] -0.089 | [3] 0.001 | duvelisib 0.057 | gandotinib 0.053 | tozasertib -0.06 | [4] 0 | doramapimod 0.027 | ispinesib -0.022

VPS36 (UniProt Q86VN1)
inactive: [1] -0.044 | crizotinib -0.028 | [2] 0.055 | [3] -0.038 | duvelisib 0.027 | gandotinib -0.104 | tozasertib -0.002 | [4] -0.014 | doramapimod 0.071 | ispinesib -0.015

VPS13D (UniProt Q5THJ4)
inactive: [1] 0.114 | crizotinib -0.162 | [2] -0.053 | [3] 0.252 | duvelisib -0.023 | gandotinib -0.16 | tozasertib -0.037 | [4] 0.01 | doramapimod 0.142 | ispinesib -0.258

WDR13 (UniProt Q9H1Z4)
inactive: [1] 0.02 | crizotinib 0.063 | [2] 0.073 | [3] -0.011 | duvelisib 0.101 | gandotinib 0.064 | tozasertib -0.002 | [4] -0.011 | doramapimod 0.017 | ispinesib 0.004

WDR45B (UniProt Q5MNZ6)
inactive: [1] -0.04 | crizotinib -0.017 | [2] -0.05 | [3] -0.002 | duvelisib -0.047 | gandotinib 0.035 | tozasertib -0.021 | [4] -0.001 | doramapimod -0.006 | ispinesib -0.012

VEZF1 (UniProt Q14119)
inactive: [1] -0.068 | crizotinib 0.169 | [2] -0.324 | [3] 0.205 | duvelisib -0.065 | gandotinib 0.01 | [4] 0.011 | doramapimod 0.167 | ispinesib -0.032

WDR45 (UniProt Q9Y484)
inactive: [1] 0.012 | crizotinib -0.018 | [2] 0.04 | [3] -0.085 | duvelisib -0.001 | gandotinib -0.069 | tozasertib 0.002 | [4] -0.027 | doramapimod 0.012 | ispinesib 0.022

WIPI1 (UniProt Q5MNZ9)
inactive: [1] -0.008 | crizotinib 0.099 | [2] -0.076 | [3] -0.137 | duvelisib 0.025 | gandotinib -0.004 | tozasertib 0.028 | [4] -0.012 | doramapimod 0.002 | ispinesib -0.059

WASF2 (UniProt Q9Y6W5)
inactive: [1] 0.023 | crizotinib -0.033 | [2] -0.122 | [3] 0.008 | duvelisib -0.033 | gandotinib -0.051 | tozasertib -0.044 | [4] -0.025 | doramapimod 0.008 | ispinesib -0.038

VPS25 (UniProt Q9BRG1)
inactive: [1] 0.004 | crizotinib 0.052 | [2] 0.156 | [3] -0.042 | duvelisib 0.108 | gandotinib -0.118 | tozasertib 0.024 | [4] 0.009 | doramapimod 0.028 | ispinesib 0.072

WDR44 (UniProt Q5JSH3)
inactive: [1] -0.005 | crizotinib 0.027 | [2] 0.024 | [3] -0.073 | duvelisib 0.029 | gandotinib -0.009 | tozasertib -0.027 | [4] -0.014 | doramapimod -0.015 | ispinesib 0.017

VRK3 (UniProt Q8IV63)
inactive: [1] -0.07 | crizotinib 0.089 | [2] 0.21 | [3] 0.153 | gandotinib -0.035 | tozasertib 0.149 | doramapimod 0.023 | ispinesib -0.149

VDAC3 (UniProt Q9Y277)
inactive: [1] 0.009 | crizotinib 0.065 | [2] 0.012 | [3] -0.074 | duvelisib 0.006 | gandotinib -0.02 | tozasertib -0.026 | [4] -0.022 | doramapimod -0.012 | ispinesib -0.005

WDR3 (UniProt Q9UNX4)
inactive: [1] 0.05 | crizotinib -0.087 | [2] -0.278 | [3] 0.399 | duvelisib -0.073 | gandotinib 0.016 | tozasertib 0.116 | [4] 0.078 | doramapimod 0.223 | ispinesib -0.265

VKORC1L1, A0A3B3ISV4
inactive: [1] -0.101 | crizotinib 0.078 | [2] 0.07 | [3] -0.041 | duvelisib 0.173 | gandotinib -0.049 | tozasertib 0.002 | [4] -0.024 | doramapimod 0.018 | ispinesib 0.197

WIPI2 (UniProt Q9Y4P8)
inactive: [1] 0.013 | crizotinib -0.084 | [2] 0.221 | [3] -0.013 | duvelisib -0.081 | gandotinib -0.007 | tozasertib -0.067 | [4] 0.01 | doramapimod 0.035 | ispinesib -0.06

WDR92 (UniProt Q96MX6)
inactive: [1] 0.055 | crizotinib -0.071 | [2] -0.046 | [3] -0.089 | duvelisib -0.013 | gandotinib 0.053 | tozasertib 0.024 | [4] 0.132 | doramapimod 0 | ispinesib 0.001

WDR77 (UniProt Q9BQA1)
inactive: [1] -0.022 | crizotinib -0.101 | [2] 0.007 | [3] -0.017 | duvelisib 0.188 | gandotinib -0.05 | tozasertib -0.021 | [4] -0.031 | doramapimod 0.012 | ispinesib 0.019

VPS4B (UniProt O75351)
inactive: [1] 0.023 | crizotinib -0.056 | [2] 0.087 | [3] 0.001 | duvelisib 0.024 | gandotinib -0.074 | tozasertib -0.031 | [4] 0.013 | doramapimod -0.015 | ispinesib -0.053

WIPF3 (UniProt A6NGB9)
inactive: [1] 0.045 | crizotinib -0.13 | [2] 0.022 | [3] 0.044 | duvelisib -0.046 | gandotinib -0.21 | tozasertib 0.027 | [4] -0.091 | doramapimod -0.011 | ispinesib 0.069

VTN (UniProt P04004)
inactive: [1] -0.134 | crizotinib -0.078 | [2] -0.204 | [3] 0.003 | duvelisib -0.297 | tozasertib 0.01 | [4] 0.009 | doramapimod 0.035 | ispinesib -0.074

WIPF2 (UniProt Q8TF74)
inactive: [1] 0.021 | crizotinib -0.005 | [2] 0.04 | [3] -0.06 | duvelisib 0.01 | gandotinib -0.027 | tozasertib -0.051 | [4] -0.022 | doramapimod -0.012 | ispinesib 0.007

WBP11 (UniProt Q9Y2W2)
inactive: [1] -0.032 | crizotinib 0.032 | [2] -0.038 | [3] -0.009 | duvelisib -0.006 | gandotinib -0.003 | tozasertib -0.008 | [4] -0.011 | doramapimod -0.026 | ispinesib 0.084

WDSUB1 (UniProt Q8N9V3)
inactive: [1] 0.082 | crizotinib 0.039 | [2] 0.048 | [3] -0.095 | duvelisib 0.121 | gandotinib 0.011 | tozasertib -0.022 | [4] -0.009 | doramapimod -0.023 | ispinesib 0.009

WDR26, A0A499FIZ0
inactive: [1] -0.011 | crizotinib 0.074 | [2] 0.036 | [3] 0.03 | duvelisib 0 | gandotinib 0 | tozasertib 0.079 | [4] 0.002 | doramapimod 0.029 | ispinesib 0.018

WDR89 (UniProt Q96FK6)
inactive: [1] 0.009 | crizotinib 0.033 | [2] 0.042 | [3] -0.004 | duvelisib 0.031 | gandotinib -0.105 | tozasertib -0.04 | [4] -0.019 | doramapimod 0 | ispinesib 0.026

WASL (UniProt O00401)
inactive: [1] 0.088 | crizotinib -0.054 | [2] 0.079 | [3] 0.036 | duvelisib 0.092 | gandotinib -0.177 | tozasertib -0.013 | [4] -0.067 | doramapimod -0.01 | ispinesib 0.034

Fetched one by one from the list above (two):
WASL (UniProt O00401)
inactive: [1] 0.088 | crizotinib -0.054 | [2] 0.079 | [3] 0.036 | duvelisib 0.092 | gandotinib -0.177 | tozasertib -0.013 | [4] -0.067 | doramapimod -0.01 | ispinesib 0.034

WDR89 (UniProt Q96FK6)
inactive: [1] 0.009 | crizotinib 0.033 | [2] 0.042 | [3] -0.004 | duvelisib 0.031 | gandotinib -0.105 | tozasertib -0.04 | [4] -0.019 | doramapimod 0 | ispinesib 0.026
